Literature values in patent US8252829B2, “Aminopyrrolidinone derivatives and uses thereof” (Link Medicine Corporation, priority 2009, dated 2012).
At least one compound was matched to its structure with a doubt left.

Test system: INS1 cells
Settings: positive control, previously shown; cited from earlier work

For `CO[C@H]1C[C@@H]2CC[C@@H](C)[C@@](O)(O2)C(=O)C(=O)N2CCCC[C@H]2C(=O)O[C@H]([C@H](C)C[C@@H]2CC[C@@H](O)[C@H](OC)C2)CC(=O)[C@H](C)/C=C(\C)[C@@H](O)[C@@H](OC)C(=O)[C@H](C)C[C@H](C)/C=C/C=C/C=C/1C` [Rapamycin, rapamycin], the “protection of cells from the toxic effect of palmitate” value is given as “protect cells from the toxic effect of palmitate”.
